The supplement of paper PMC10849652
The list shows a part of the results.

Chains of the proteins cited; added tags and fusions are not shown. Lines headed by an entry give the natural chain unless they say otherwise; changes in a name come on top.
UniProt Q5T5U3: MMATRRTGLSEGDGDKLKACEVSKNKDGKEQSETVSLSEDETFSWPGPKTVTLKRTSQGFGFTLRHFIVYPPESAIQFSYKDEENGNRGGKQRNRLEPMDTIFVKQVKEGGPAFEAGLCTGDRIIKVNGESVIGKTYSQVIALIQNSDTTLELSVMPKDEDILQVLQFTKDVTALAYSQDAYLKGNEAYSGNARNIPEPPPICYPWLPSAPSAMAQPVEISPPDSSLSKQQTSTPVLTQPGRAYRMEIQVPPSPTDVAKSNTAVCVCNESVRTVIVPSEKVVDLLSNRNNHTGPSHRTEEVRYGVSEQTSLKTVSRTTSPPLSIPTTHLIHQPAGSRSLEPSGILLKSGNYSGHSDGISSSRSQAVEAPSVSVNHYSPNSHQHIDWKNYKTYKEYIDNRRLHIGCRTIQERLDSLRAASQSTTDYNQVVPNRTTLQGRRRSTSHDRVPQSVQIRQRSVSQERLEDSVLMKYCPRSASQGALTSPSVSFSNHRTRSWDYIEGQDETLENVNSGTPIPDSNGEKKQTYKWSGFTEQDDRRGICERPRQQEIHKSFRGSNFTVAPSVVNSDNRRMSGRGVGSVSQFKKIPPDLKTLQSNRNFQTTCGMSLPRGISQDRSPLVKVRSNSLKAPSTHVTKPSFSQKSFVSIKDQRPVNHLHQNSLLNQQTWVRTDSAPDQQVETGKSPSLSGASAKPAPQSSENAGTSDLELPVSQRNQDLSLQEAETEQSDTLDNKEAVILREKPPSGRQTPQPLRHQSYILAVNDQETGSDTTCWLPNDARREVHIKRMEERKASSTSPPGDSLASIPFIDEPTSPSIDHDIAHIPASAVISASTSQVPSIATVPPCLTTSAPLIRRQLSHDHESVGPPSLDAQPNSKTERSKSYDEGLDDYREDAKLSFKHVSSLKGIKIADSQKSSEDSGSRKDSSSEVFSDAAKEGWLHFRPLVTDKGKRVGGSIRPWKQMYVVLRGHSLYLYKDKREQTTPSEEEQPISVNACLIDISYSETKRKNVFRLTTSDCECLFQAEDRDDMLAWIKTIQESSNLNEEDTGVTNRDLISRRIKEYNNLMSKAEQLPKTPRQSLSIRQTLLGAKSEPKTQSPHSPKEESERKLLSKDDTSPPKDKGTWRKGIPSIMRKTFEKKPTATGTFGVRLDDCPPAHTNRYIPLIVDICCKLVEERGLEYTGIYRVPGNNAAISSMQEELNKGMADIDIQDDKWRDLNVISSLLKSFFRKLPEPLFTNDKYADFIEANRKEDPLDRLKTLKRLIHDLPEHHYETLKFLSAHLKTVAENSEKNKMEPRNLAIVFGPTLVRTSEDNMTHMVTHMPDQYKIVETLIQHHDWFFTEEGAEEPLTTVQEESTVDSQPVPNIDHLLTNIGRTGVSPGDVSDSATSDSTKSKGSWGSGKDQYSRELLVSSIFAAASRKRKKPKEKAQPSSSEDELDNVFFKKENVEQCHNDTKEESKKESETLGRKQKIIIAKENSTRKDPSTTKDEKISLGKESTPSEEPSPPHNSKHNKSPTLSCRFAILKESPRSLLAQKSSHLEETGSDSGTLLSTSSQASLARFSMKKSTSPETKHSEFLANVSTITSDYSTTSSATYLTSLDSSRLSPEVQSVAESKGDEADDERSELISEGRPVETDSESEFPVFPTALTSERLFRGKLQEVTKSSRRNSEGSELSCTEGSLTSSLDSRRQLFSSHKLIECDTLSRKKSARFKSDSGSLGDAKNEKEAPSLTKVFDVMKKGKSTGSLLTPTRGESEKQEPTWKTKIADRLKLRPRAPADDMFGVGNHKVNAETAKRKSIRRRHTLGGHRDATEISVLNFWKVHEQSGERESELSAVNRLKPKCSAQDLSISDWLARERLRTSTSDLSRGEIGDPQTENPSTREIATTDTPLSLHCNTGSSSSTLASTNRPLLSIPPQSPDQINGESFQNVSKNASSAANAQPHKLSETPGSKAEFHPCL
UniProt A6QL64: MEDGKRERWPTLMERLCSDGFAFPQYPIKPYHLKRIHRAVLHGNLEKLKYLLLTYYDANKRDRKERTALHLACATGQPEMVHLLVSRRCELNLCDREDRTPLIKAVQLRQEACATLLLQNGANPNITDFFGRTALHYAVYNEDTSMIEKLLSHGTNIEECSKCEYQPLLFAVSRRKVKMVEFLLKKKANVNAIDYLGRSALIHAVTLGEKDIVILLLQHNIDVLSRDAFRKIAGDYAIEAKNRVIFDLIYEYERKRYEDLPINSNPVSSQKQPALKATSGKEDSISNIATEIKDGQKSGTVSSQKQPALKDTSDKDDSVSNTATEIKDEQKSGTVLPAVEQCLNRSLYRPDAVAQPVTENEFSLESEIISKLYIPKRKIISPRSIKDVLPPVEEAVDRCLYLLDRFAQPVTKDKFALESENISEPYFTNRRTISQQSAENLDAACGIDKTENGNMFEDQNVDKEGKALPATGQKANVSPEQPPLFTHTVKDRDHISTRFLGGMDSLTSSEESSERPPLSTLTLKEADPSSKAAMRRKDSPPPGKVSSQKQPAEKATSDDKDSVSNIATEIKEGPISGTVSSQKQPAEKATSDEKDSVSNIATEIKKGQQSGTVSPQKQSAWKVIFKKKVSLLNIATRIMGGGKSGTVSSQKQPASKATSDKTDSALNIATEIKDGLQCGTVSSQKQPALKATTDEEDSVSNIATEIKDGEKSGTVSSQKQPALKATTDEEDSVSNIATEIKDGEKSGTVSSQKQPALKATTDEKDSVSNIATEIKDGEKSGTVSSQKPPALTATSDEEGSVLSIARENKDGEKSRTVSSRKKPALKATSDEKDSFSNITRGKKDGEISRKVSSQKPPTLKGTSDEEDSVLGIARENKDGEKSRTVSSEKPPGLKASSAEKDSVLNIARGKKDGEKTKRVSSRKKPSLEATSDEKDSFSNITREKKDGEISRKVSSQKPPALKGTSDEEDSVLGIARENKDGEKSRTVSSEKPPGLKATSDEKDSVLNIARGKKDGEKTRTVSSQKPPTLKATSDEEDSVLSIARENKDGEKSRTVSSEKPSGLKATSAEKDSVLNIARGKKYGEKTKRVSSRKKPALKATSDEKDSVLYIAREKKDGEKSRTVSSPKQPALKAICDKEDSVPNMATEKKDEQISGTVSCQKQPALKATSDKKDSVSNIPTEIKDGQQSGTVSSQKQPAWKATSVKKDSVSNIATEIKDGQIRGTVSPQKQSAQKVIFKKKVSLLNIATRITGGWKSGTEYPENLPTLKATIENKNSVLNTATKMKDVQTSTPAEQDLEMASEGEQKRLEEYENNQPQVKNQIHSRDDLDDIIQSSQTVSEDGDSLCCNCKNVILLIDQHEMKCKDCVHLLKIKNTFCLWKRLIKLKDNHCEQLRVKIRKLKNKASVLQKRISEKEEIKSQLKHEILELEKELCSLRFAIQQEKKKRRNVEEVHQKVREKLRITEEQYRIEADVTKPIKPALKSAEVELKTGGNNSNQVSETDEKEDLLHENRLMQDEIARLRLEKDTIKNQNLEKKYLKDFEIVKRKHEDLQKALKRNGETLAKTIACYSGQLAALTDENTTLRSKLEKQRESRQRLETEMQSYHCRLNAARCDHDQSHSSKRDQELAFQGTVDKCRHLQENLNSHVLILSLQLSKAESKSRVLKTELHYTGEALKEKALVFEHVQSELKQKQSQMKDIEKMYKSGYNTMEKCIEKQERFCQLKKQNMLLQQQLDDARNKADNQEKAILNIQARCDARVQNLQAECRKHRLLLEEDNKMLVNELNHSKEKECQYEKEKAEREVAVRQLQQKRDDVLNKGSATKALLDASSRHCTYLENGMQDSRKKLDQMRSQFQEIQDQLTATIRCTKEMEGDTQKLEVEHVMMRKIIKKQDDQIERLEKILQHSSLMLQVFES
UniProt Q9Y6B7: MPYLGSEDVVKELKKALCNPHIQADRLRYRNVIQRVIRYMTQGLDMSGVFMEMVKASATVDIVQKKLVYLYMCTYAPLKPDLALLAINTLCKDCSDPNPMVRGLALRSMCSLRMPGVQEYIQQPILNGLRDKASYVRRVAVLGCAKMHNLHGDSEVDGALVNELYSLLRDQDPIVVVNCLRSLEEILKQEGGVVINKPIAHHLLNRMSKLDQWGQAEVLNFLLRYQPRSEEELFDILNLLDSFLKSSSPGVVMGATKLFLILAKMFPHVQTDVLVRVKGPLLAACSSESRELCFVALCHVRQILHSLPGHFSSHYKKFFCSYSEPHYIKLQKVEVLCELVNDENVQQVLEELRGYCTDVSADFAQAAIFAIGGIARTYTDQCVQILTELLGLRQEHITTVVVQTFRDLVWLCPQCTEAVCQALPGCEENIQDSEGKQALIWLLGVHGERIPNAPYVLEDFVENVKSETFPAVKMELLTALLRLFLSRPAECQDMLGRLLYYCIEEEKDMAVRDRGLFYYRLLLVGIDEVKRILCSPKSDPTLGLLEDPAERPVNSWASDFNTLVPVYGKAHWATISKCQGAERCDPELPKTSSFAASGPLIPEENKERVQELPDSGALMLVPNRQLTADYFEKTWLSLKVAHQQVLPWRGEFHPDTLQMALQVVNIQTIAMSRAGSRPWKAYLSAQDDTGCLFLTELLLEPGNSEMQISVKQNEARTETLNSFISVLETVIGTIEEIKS
UniProt P05067, whole entry, looked up: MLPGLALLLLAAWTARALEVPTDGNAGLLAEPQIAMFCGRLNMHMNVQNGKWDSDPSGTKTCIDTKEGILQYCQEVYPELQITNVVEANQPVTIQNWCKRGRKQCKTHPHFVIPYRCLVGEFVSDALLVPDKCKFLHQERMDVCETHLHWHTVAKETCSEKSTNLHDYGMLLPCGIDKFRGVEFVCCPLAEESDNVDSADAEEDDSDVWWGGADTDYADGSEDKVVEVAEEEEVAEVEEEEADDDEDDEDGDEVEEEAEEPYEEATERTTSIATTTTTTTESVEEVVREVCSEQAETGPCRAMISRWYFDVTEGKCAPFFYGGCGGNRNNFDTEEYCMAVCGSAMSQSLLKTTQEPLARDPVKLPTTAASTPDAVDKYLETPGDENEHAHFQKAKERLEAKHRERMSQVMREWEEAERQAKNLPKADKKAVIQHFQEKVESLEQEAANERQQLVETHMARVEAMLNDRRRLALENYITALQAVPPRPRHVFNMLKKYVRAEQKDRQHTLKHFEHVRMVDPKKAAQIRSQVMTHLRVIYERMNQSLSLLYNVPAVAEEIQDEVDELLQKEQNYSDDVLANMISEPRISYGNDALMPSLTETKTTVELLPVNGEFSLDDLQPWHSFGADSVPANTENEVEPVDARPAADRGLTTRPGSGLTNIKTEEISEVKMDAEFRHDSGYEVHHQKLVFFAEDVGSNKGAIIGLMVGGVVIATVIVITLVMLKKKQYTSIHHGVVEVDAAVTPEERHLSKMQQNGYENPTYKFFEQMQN
UniProt Q8WW43, whole entry, looked up: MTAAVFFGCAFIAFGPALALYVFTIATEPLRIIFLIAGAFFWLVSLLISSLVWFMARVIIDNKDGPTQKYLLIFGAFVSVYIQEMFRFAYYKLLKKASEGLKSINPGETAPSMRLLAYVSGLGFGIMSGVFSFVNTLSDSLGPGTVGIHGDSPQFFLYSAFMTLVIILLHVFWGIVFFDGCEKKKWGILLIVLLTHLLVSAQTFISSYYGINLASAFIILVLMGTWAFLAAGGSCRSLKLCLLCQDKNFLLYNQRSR
UniProt Q9H0R1: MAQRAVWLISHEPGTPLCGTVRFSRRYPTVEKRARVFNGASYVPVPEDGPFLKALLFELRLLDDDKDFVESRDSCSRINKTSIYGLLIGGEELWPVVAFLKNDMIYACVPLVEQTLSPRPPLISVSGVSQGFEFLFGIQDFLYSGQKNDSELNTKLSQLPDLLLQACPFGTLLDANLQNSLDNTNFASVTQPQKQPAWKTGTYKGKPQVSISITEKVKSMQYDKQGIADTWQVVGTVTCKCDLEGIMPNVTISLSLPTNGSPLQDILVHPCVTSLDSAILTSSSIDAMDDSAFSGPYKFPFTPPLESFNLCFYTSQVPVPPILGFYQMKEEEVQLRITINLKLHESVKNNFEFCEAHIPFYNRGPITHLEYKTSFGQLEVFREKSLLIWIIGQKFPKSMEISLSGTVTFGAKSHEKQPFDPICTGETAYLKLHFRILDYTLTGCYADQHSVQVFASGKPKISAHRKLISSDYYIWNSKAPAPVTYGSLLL
UniProt Q7Z2E3: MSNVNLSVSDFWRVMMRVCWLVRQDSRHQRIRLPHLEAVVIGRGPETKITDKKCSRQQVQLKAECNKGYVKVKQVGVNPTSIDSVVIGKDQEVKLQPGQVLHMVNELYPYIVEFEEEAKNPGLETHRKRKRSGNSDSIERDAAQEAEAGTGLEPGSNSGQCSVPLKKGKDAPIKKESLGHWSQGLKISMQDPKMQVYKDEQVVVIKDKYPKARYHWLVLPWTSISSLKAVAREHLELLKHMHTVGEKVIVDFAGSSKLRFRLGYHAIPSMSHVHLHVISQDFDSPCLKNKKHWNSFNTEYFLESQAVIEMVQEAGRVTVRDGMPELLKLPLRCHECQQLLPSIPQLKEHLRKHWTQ

Each target was assayed with NC(=O)Nc1cc(-c2cccc(F)c2)sc1C(=O)N[C@H]1CCCNC1 (assay: log2 fold change, soluble protein after heating vs DMSO (PISA); higher = thermal stabilisation; K562 cells, 10 uM, 30 min; active = over 0.2 and 3.5 SD of the protein, either way, in both replicates (recomputed)).
Procedure, shortened: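 Values are thermal stability changes relative to control samples and are taken from duplicates. They are stated as log2 fold changes. Before quantification by TMTpro 16plex LC-MS/MS with equalised channel sums, K562 cells at 2×10^6 cells/mL were treated with 10 μM compound for 30 min, heated in aliquots for 3 min across 48°C-58°C, pooled, extracted in PBS with 0.5% NP-40 at 4°C, and centrifuged at 21,000xg for 90 min to give the soluble supernatant.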

log2 fold change, inactive:
ARHGAP21 (UniProt Q5T5U3) -0.097
ANKRD16 (UniProt Q6P6B7) -0.345
ANKRD36 (UniProt A6QL64) -0.342
AP4B1 (UniProt Q9Y6B7) 0.092
ARFIP1 isoform 2 (UniProt P53367) 0.11
ARHGAP22 isoform 2 (UniProt Q7Z5H3) 0
ANKS1A (UniProt Q92625) -0.064
ANKRD11 (UniProt Q6UB99) -0.306
APP (UniProt P05067) -0.077
ARAP1 (UniProt Q96P48) -0.08
APH1B (UniProt Q8WW43) -0.229
ANLN (UniProt Q9NQW6) 0.077
AP5M1 (UniProt Q9H0R1) -0.105
APTX (UniProt Q7Z2E3) -0.075
